Results are given in words; binding and its absence hold for the method and conditions named. In cells and extracts the contact can be indirect. Some entries that bind do so weakly or less than the wild type.
How the values were obtained:
[1] = target: Nischarin (NISCH) C185S, full-length, FLAG-tagged (human) (UniProt Q9Y2I1); assay: proximity ligation; cells expressing NISCH WT or C185S, low glucose (LG); Fig. S7; methods not shown
[2] = target: Nischarin (NISCH) C185S, full-length, FLAG-tagged (human) (UniProt Q9Y2I1); assay: co-IP; FLAG-NISCH WT or C185S transfected in MDA-MB-231; cells in 25 mM (HG) or 5 mM (LG) glucose (24 h in the methods, 16 h in the legend); lysis in Tris pH 8, 150 mM NaCl, 1 % NP-40; 1 mg lysate with FLAG antibody and protein G agarose at 4 °C; blots for PAK1, Rac1/Cdc42 and integrin α5

Sequences of proteins named here, by UniProt entry; tags and fusion partners are left off. A change or cut given only in a name is not applied to a line headed by its entry.
UniProt Q9Y2I1: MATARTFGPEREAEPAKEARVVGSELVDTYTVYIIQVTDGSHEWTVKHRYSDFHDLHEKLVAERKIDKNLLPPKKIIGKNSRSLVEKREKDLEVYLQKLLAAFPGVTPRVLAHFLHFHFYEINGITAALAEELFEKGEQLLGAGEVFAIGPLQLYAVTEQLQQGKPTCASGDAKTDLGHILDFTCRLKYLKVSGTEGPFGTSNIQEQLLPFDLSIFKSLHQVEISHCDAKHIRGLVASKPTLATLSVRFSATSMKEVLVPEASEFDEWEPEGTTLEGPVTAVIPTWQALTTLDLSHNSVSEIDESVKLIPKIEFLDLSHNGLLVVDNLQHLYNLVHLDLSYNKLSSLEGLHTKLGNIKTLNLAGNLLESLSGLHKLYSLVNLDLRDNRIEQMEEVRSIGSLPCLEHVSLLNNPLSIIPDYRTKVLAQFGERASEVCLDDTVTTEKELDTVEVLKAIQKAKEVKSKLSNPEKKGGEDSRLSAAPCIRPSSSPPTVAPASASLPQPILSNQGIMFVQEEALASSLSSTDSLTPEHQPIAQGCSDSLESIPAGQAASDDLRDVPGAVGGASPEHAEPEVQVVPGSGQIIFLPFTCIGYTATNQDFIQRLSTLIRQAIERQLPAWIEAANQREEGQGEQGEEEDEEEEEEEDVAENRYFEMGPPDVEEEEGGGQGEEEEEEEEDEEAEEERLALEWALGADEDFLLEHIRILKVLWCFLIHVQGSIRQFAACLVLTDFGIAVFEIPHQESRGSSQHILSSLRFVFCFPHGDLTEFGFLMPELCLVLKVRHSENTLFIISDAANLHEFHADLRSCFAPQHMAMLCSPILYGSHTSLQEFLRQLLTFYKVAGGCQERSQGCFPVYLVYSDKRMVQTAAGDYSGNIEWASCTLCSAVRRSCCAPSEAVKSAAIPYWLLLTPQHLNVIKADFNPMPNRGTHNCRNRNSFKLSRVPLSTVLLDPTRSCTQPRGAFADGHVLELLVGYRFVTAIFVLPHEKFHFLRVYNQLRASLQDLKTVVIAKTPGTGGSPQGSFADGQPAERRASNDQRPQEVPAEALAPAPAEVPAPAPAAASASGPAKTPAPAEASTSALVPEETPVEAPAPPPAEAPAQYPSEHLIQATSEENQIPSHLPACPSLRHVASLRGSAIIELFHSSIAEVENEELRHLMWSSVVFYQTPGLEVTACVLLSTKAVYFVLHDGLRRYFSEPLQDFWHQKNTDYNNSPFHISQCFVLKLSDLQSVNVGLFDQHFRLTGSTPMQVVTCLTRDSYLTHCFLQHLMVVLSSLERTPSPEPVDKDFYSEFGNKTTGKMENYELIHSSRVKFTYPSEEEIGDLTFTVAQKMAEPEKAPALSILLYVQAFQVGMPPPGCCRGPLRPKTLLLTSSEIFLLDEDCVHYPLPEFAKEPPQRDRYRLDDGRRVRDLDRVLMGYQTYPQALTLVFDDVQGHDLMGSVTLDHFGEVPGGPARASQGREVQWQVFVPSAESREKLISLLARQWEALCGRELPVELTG
UniProt Q13153: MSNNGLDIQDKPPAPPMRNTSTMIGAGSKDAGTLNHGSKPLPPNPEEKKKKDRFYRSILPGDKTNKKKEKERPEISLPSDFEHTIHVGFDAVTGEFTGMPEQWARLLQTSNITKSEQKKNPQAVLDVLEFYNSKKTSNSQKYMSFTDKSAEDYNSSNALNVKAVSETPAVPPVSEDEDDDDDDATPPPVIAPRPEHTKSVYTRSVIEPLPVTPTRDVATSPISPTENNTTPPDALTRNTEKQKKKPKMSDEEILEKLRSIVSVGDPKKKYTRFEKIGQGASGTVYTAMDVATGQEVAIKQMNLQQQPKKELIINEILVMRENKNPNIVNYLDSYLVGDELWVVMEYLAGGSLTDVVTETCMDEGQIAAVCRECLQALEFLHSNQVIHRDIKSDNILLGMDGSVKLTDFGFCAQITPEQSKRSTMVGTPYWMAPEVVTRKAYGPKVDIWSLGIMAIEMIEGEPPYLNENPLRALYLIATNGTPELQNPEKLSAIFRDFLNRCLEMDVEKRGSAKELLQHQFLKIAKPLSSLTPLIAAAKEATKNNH

In the case of PAK1 (from UniProt Q13153 1-545), the binding [1] is reported as “binds” and the binding [2] is reported as “binds”.
